Among all 1,400 compounds or so, about 45 (3%) were called active.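 How the source made its calls: active means half-maximal dose of signal decrease from fit no higher than ten times the top valid tested dose; inconclusive means fit invalid, or curve flat with 30 to 70% inhibition; inactive means the rest.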 The list shows a part of the results. Entries with a potency or affinity are not part of this list.

Sequences of proteins named here, by UniProt entry; tags and fusion partners are left off. A change or cut given only in a name is not applied to a line headed by its entry.
UniProt O75164: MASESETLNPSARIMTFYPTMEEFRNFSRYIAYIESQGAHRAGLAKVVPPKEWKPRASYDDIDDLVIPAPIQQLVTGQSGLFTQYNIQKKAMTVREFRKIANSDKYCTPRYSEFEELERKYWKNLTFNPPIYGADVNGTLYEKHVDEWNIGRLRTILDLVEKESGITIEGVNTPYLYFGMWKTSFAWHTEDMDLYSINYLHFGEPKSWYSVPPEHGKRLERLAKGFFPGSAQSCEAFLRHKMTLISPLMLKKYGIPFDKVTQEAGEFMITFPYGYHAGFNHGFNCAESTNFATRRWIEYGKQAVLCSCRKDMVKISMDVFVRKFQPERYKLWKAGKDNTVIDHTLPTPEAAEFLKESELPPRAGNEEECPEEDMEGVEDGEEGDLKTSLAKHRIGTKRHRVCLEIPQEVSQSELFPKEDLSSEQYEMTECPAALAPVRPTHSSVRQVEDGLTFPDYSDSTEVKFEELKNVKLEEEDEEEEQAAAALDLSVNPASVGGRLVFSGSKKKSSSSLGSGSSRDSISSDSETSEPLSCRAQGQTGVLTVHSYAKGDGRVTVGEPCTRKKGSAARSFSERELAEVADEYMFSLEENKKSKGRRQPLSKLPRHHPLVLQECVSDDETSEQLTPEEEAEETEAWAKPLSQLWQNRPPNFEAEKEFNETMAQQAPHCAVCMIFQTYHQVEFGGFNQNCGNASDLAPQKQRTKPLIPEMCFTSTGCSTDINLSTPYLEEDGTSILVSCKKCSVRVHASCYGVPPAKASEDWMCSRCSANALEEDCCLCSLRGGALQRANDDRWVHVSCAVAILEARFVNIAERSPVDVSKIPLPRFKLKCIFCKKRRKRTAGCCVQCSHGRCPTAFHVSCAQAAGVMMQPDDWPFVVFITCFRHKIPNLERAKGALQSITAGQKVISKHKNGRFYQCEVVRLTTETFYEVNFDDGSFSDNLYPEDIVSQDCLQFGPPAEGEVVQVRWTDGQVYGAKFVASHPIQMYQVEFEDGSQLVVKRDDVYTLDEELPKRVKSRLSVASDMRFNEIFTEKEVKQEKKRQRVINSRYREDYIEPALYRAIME

The record followed here is PubChem BioAssay AID488840 (Broad Institute, 2010).

This experiment concerns the target Lysine-specific demethylase 4A (Homo sapiens) (UniProt O75164). The experiment is described as follows: inhibition of JMJD2A H3K9me3 demethylation – biochemical, DELFIA europium, cherry-picked samples, selectivity assay for GASC-1 inhibitor project, dose response (AID 488840).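 Further: europium signal reports the dimethyl H3K9 product detected by antibody so inhibitors lower it; 0% = median of neutral control wells and -100% = median of positive control wells.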 Conditions: GST-JMJD2A(1-420) H3K9me3 demethylation; at 6 µM (top of the series) unless noted.
As for `CCOc1ccccc1Nc1nc2ccccc2n2cnnc12`, the activity change, negative = inhibition was inactive: -6.63%.

Turning to `COc1ccc(/C=C2\Sc3ccc(C(=O)N4CCCC4)cc3N(C)C2=O)cc1OC`, the activity change, negative = inhibition was inactive: -0.904%.

For the molecule `O=C(COC(=O)CCC(=O)c1cccs1)Nc1ccc(S(=O)(=O)N2CCOCC2)cc1`, the activity change, negative = inhibition is inactive: -9.01%. The same measure for `COc1ccc2c(C(=O)CN3CCN(c4ccccc4)CC3)c[nH]c2c1`: inactive: 1.19%; for `Cc1ccc(Nc2nc3nonc3nc2N(C)C)cc1`: inactive: 13.4%. The same measure for `CC[C@]12c3[nH]c4ccccc4c3CCN1C(=O)C(CC(=O)NCCCOC)C[C@@H]2C(=O)N1CCN(C(=O)c2ccco2)CC1` (some centres not stated): inactive: -4.78%. The same measure for `CC(=O)c1c(C(C)=O)c(C)n(NC(=O)c2ccncc2)c1C`: inactive: -1.43%.

Take `Cc1ccccc1-n1nc(C)c2cc(C(=O)N3CCN(S(=O)(=O)c4ccc(F)cc4)CC3)sc21`: the activity change, negative = inhibition is inactive: -3.6%. The same measure for `O=[N+]([O-])c1ccc(/C=[N+](\[O-])[C@@H]2CCCC[C@@H]2/[N+]([O-])=C/c2ccc([N+](=O)[O-])o2)o1`: inactive: -0.265%. The same measure for `N=c1nc(-c2ccccc2)ccn1O`: inactive: 2.55%; for `CCCCCC1CC(=O)N(Cc2ccccc2)C(=O)N1` (configuration not stated): inactive: 2.13%; for `c1ccc(-c2ccccc2OCCN2CCCC2)cc1`: inactive: 0.528%. For `COc1ccc(CN(Cc2nc3ccccc3c(=O)[nH]2)C(=O)NC2CCCCC2)cc1`, the activity change, negative = inhibition is inactive: 1.62%. The same measure for `CCOc1ccc(CN2CCN(Cc3nc(C(C)C)cs3)CC2CCO)cc1` (configuration not stated): inactive: 9.55%. Consider `COc1ccc(NC(=O)N(C)C[C@H]2Oc3c(NC(=O)C4CCCCC4)cccc3C(=O)N([C@H](C)CO)C[C@@H]2C)cc1`, for which the activity change, negative = inhibition was inactive: -0.592%. The same measure for `Cc1ccc(NC(=O)CSc2ncccn2)c([N+](=O)[O-])c1`: inactive: -0.294%; for `O=C(c1ccncc1)N1N=C(C2CCCCC2)CC1(O)C(F)(F)F` (configuration not stated): inactive: -3.98%; for `CCCN1C(=O)c2ccc(C(=O)Nc3cc(C)ccc3O)cc2C1=O`: inactive: -4.14%. The same measure for `COC(=O)c1sc(S(=O)(=O)NCc2ccccc2)c(C(=O)OC)c1C`: inactive: -3.12%; for `COc1ccc(C2/C(=C(/O)c3ccccc3)C(=O)C(=O)N2CCN2CCOCC2)c(OC)c1` (configuration not stated): inactive: -0.793%; for `C#CCOCCOCCOCCNc1nc(N2CCN(C(=O)CCCCCCCCCCNC(=O)[C@H](CCCCN)n3cc(CCO)nn3)CC2)nc(N2CCN(C(=O)CCCCCCCCCCNC(=O)[C@H](CCCCN)n3cc(C[C@@H](C)CC)nn3)CC2)n1`: inactive: 21.3%. The same measure for `O=C(NC1CCCc2ccccc21)c1ccc(Br)cc1` (configuration not stated): inactive: 2.31%; for `Cc1ccc(-c2csc(NC(=O)CSc3nc(C)cc(=O)[nH]3)n2)cc1`: inactive: 1.45%.

Consider `O=C(CC1NC(=O)NC1=O)Nc1ccccc1` (configuration not stated), for which the activity change, negative = inhibition was inactive: 1.09%. As for `O=Cc1ccc(C(=O)OCC(=O)Nc2ccc(F)cc2F)cc1`, the activity change, negative = inhibition was inactive: -4.33%. The same measure for `Cc1cc(C)n(-c2nnc(C)n2/N=C/c2ccco2)n1`: inactive: -8.26%; for `CC(C)(C)NNC(=S)Nc1cccc(C(F)(F)F)c1`: inactive: -1.89%. The same measure for `CC[C@H]1CCCCc2ccccc2[C@@H](C(=O)C[C@@H](O)CC(C)=O)OC1=O`: inactive: 0.689%; for `COCCCNC(=S)NNC(=O)c1ccccn1`: inactive: 6.83%. The same measure for `COc1ccccc1/C=C/C(=O)Nc1ccc(N2CCOCC2)cc1`: inactive: -5.29%. `C[C@H]1CN([C@@H](C)CO)C(=O)c2cc(NS(=O)(=O)c3ccc(Cl)cc3)ccc2O[C@@H]1CN(C)CC1CCCCC1`: the activity change, negative = inhibition is inactive: 1.27%. The same measure for `Cc1[nH]n2c(=O)c3c(nc2c1-c1ccccc1)CCCC3`: inactive: 5.6%; for `CC(C)(C)c1ccc(S(=O)(=O)/N=C2\C=C(NS(=O)(=O)c3ccccc3)C(=O)c3ccccc32)cc1`: inactive: 2.09%; for `CCC(C)(C(=O)NC1CCCC1)N(Cc1cccs1)C(C)=O` (configuration not stated): inactive: 4.25%.

As for `CCOc1ccc(C(=O)Nc2nnc(C(C)C)s2)cc1OCC`, the activity change, negative = inhibition was inactive: -1.42%. The same measure for `C[C@H]1CN(CCc2ccccc2)C(=O)[C@@H]1CC(=O)NCc1ccccc1`: inactive: -0.104%; for `CSc1nc(N)nc2c1ncn2CC(=O)N[C@H](C)c1cccc2ccccc12`: inactive: 6.71%. The same measure for `O=C(CCc1ccc(S(=O)(=O)NCc2ccccc2)cc1)NCc1ccc2c(c1)OCO2`: inactive: -9.71%; for `COc1ccc(-c2nn(-c3ccccc3)cc2CNC(C)Cn2cncn2)c(F)c1` (configuration not stated): inactive: -7.39%.

With `CC(=O)c1c(C(C)=O)c(C)n(-c2nc(-c3cccs3)c(C)s2)c1C`, the activity change, negative = inhibition was inactive: -2.33%. For the molecule `CCOC(=O)c1sc(NC(=O)CSc2nnc(-c3ccc(OC)cc3)n2CCOC)nc1C`, the activity change, negative = inhibition is inactive: 2.51%. The same measure for `CC1=C(C(=O)OC(C)C)C(c2ccccc2)NC(=S)N1C` (configuration not stated): inactive: 0.616%. The same measure for `O=C(c1ccc(Cn2cc([N+](=O)[O-])cn2)o1)N1CCCCCC1`: inactive: -10.9%.

For the molecule `O=C(Nc1nnc(CCS(=O)(=O)c2ccc3ccccc3c2)s1)c1cccs1`, the activity change, negative = inhibition is inactive: 3.02%. The same measure for `Cc1nnnn1/C(=C\c1ccccc1)C(=O)OCC(=O)NC(C)(C)C`: inactive: 5.43%; for `Cc1nc2c3cc(F)ccc3n(Cc3ccccc3)c2s1`: inactive: -0.947%.

For the molecule `O=C(Cc1ccccc1Cl)N1CCN(c2ccccn2)CC1`, the activity change, negative = inhibition was inactive: 3.23%. The same measure for `O=C(O)CCCC(=O)Nc1ccc(C(=O)NCc2cccnc2)cc1`: inactive: 0.726%; for `COc1ccc(OC)c(/C=C/C(=O)Nc2cccc(S(=O)(=O)NC3=NCCCCC3)c2)c1`: inactive: 3.75%; for `COc1ccc(NC(=O)N(C)C[C@H]2Oc3c(NS(=O)(=O)c4cn(C)cn4)cccc3C(=O)N([C@H](C)CO)C[C@@H]2C)cc1`: inactive: -8.93%. The same measure for `O=C(Nc1ccccc1)N1CCSCC1`: inactive: -6.74%; for `C#CCOCCOCCOCCNc1nc(N2CCOCC2)nc(N2CCN(C(=O)[C@H](CCCN=C(N)N)n3cc(C(N)[C@@H](C)CC)nn3)CC2)n1` (some centres not stated): inactive: -0.0332%. The same measure for `Cc1ccc(C(=O)NCc2ccco2)cc1Br`: inactive: -11.6%; for `N#Cc1ccc(C23OCCN2CCn2nc4ccccc4c23)cc1` (configuration not stated): inactive: -0.564%.

As to `Cc1cccc(-n2c(SCC(=O)Nc3ccc4c(c3)OCO4)nnc2-c2ccoc2C)c1`, the activity change, negative = inhibition was inactive: -0.58%. The same measure for `CC(C)NC(=O)Nc1ccc2c(c1)C(=O)N([C@H](C)CO)C[C@H](C)[C@@H](CN(C)C(=O)Nc1ccccc1)O2`: inactive: -1.79%; for `O=c1[nH]cc(N2CCCCCC2)c(=O)[nH]1`: inactive: -6.05%. The same measure for `O=C1NCCN1CCNS(=O)(=O)c1ccccc1[N+](=O)[O-]`: inactive: -0.557%. The same measure for `O=C1c2sc3nc4c(c(=O)n3c2C(=O)N1c1ccccc1)CCC4`: inactive: 0.85%; for `O=c1[nH]c(S)nc2sc3c(c12)CCCC3`: inactive: 2.23%. With `CCOC(=O)c1c(C)[nH]c(C)c1S(=O)(=O)N(C)CC(=O)N(C)Cc1ccccc1`, the activity change, negative = inhibition is inactive: 1.9%. In the case of `CC(C)C[C@H](NC(=O)N1CCCCCC1)C(=O)O`, the activity change, negative = inhibition is inactive: 0.718%.

`COc1cccc(CSc2nnc(C(F)(F)F)n2Cc2ccc(F)cc2)c1`: the activity change, negative = inhibition was inactive: -0.312%.

In the case of `O=C(COc1ccc(NC(=O)c2ccccc2)cc1)c1ccccc1`, the activity change, negative = inhibition is inactive: -2.8%. The same measure for `Cc1cc2c(cc1C)NC(CC(=O)NCc1ccccc1)C(=O)N2` (configuration not stated): inactive: 0.0832%; for `CCCCNC(=O)c1nn2cc(Br)cnc2c1Br`: inactive: -8.56%; for `COc1ccc(C(=O)NCc2cccnc2)cc1S(=O)(=O)N1CCOCC1`: inactive: -1.08%.

As to `CS(=O)(=O)N(CC(=O)N1CCCCCC1)c1ccccc1`, the activity change, negative = inhibition is inactive: -5.65%.

As to `CC(=O)Nc1ccc(NC(=O)C2CCN(C(=O)c3cccs3)CC2)cc1`, the activity change, negative = inhibition was inactive: -8.37%. The same measure for `O=C(Nc1ccccc1)N(O)c1ccc(Cl)cc1`: inactive: 3.51%; for `C[C@H](CO)N1C[C@H](C)[C@@H](CN(C)S(=O)(=O)c2ccccc2)Oc2ccc(NS(=O)(=O)c3ccc(F)cc3)cc2C1=O`: inactive: -1.71%; for `CN1CCN(Cc2c(C#N)c3ccccc3n2C)CC1`: inactive: -1.82%. The same measure for `COc1ccc(C2C(C#N)=C(N)Oc3c2sc2nc(C)cc(C)c32)cc1` (configuration not stated): inactive: 2.34%.

On to `CSc1ccccc1C(=O)Nc1ccc(C)c(C)c1`, for which the activity change, negative = inhibition was inactive: -14.9%.

In the case of `CN(C)c1ccc(N=Cc2nc(-c3ccccc3)oc2OC(=O)c2ccccc2)cc1`, the activity change, negative = inhibition is inactive: 6.57%.

`Cn1c(=N)n(CC(O)c2ccccc2)c2ccccc21` (configuration not stated): the activity change, negative = inhibition was inactive: 7.12%. The same measure for `Cn1c(=O)c(-c2ccccc2)nn2c3ccccc3nc12`: inactive: -0.768%; for `O=C(Cn1nc(-c2ccc(Cl)cc2)ccc1=O)NCC1COCCO1` (configuration not stated): inactive: -1.43%. Take `COc1ccc(N/C=C2/CCCCC2=O)cc1`: the activity change, negative = inhibition was inactive: 1.06%.

For `COC(=O)CN1C(=O)[C@H]2[C@@H](/C=C/c3ccccc3)N3C(=O)CN(Cc4ccccn4)C(=O)[C@@]3(Cc3ccccc3)[C@H]2C1=O`, the activity change, negative = inhibition is inactive: -2.61%. `Oc1ccc(-c2nc3ncccn3c2Nc2ccc3c(c2)OCO3)cc1`: the activity change, negative = inhibition is inactive: -0.774%. The same measure for `CCOC(=O)c1c(NC(=O)c2cc(-c3ccc(O)cc3)on2)sc(C(C)=O)c1C`: inactive: -4.51%; for `CCc1ccc(C(=O)CSc2nc3ccccc3c(=O)[nH]2)cc1`: inactive: 0.536%. The same measure for `Cc1ccc(S(=O)(=O)N2[C@@H](c3ccc(C#N)cc3)C(C(=O)O)=C[C@H]2C(C)(C)C)cc1`: inactive: -3.84%; for `CC(=O)c1cccc(NC(=S)NC(=O)CC(C)C)c1`: inactive: 1%. The same measure for `CCOC(=O)C(C)Oc1ccsc1C(=O)OC` (configuration not stated): inactive: 0.419%; for `COc1ccc(C(=O)O/N=C(\C)c2cnccn2)cc1`: inactive: -3.82%.
